Data reported in US11220674B2, “Stabilization of dehydrogenases with stable coenzymes” (ROCHE DIABETES CARE, INC., priority 2009, dated 2022).
At least one compound was matched to its structure with a doubt left.

Assays:
[1] = Residual content of coenzyme in glucose detection reagent after dry storage on film (cNAD/NAD analysis); type: physicochemical
Description: Carba-NAD (FIG. 1A) or NAD were added to the glucose-specific GlucDH. These formulations were in each case applied to Pokalon film (Lonza) and, after drying, stored under warm and moist conditions (32° C., 85% relative humidity). The reaction kinetics and the function plot were subsequently determined at regular intervals. In parallel, at each of the times of measurement a cNAD/NAD analysis and a determination of the residual activity of the enzyme were carried out.
The relation between structure of the coenzyme and its stability over a predetermined period is evident from FIG. 6. According to this, the residual content of cNAD in a glucose detection reagent after storage (at 32° C. and 85% relative humidity) for 24 weeks is still about 80% of the initial level, whereas the content of NAD in a glucose detection reagent stabilized with NAD declines after only 5 weeks to about 35% of the initial level and, by extrapolation, is reduced to zero after about 17 weeks.

[2] = biological target: T1, alcohol dehydrogenase from yeast (Saccharomyces cerevisiae, UniProt P00330); assay: SDS gel electrophoresis of alcohol dehydrogenase after storage with coenzyme
T1 sequence (P00330 1-348): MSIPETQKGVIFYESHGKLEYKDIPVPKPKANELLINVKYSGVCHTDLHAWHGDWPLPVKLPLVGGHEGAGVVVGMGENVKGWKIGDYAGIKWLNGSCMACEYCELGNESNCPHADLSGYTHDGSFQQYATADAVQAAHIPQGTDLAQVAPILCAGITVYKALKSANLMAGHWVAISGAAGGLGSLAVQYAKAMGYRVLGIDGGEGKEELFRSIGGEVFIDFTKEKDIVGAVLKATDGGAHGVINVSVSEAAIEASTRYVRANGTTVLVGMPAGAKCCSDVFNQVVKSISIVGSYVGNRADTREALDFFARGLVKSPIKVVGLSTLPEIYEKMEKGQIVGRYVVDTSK
Description: Test conditions: MW, 10 220 kDa markers; 1: ADH, 65 hours at 6° C.; 2: ADH/cNAD, 65 hours at 6° C.; 3: ADH/NAD, 65 hours at 6° C.; 4: ADH, 65 hours at 35° C.; 5: ADH/cNAD, 65 hours at 35° C.; 6: ADH/NAD, 65 hours at 35° C.
Test conditions: MW, 10 220 kDa markers; 1: ADH/NAD, 0 days; 2: ADH/NAD, 1 day; 3: ADH/NAD, 2 days; 4: ADH/NAD, 3 days; 5: ADH/NAD, 5 days; 6: ADH/cNAD, 0 days; 7: ADH/cNAD, 1 day; 8: ADH/cNAD, 2 days; 9: ADH/cNAD, 3 days; 10: ADH/cNAD, 6 days.
cNAD or NAD were added to an alcohol detection solution. These mixtures were stored at 35° C. The stability of the enzyme was then checked at regular intervals, and the residual activity of the enzyme was determined.

Structure (SMILES): NC(=O)c1ccc[n+]([C@@H]2O[C@H](COP(=O)([O-])OP(=O)(O)OC[C@H]3O[C@@H](n4cnc5c(N)ncnc54)[C@H](O)[C@@H]3O)[C@@H](O)[C@H]2O)c1 [NAD, nicotinamide adenine dinucleotide]
- storage time after which coenzyme content is reduced to zero ([1]; 32° C., 85% relative humidity, by extrapolation): about 17 weeks
- residual content of coenzyme in glucose detection reagent ([1]; storage at 32° C. and 85% relative humidity, after 5 weeks): about 35 % of the initial level
- alcohol dehydrogenase band in SDS gel ([2]; storage at 35° C., NAD 5 days, cNAD 6 days): almost completely disappeared
- alcohol dehydrogenase band in SDS gel ([2]; storage for 65 hours at 35° C. (versus 6° C.)): completely disappeared
